Source: paper doi:10.1101/184499
No constants are given. Whether binding was seen depends on the method and setting. In cells and extracts the contact can be indirect. Here binding means that the protein was enriched with, or labelled near, the bait; the list need not be complete. One block for each molecule: values may come before it.

Protein sequences, listed by entry. Tags and fused reporters are not part of them. Residues count along the entry.
UniProt P63104: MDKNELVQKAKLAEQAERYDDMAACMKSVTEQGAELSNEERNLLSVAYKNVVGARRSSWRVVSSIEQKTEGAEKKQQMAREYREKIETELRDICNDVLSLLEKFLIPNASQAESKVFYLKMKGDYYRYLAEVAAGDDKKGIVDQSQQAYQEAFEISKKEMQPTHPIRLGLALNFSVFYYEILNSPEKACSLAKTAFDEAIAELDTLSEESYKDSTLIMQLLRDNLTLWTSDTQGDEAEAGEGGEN
UniProt O35129: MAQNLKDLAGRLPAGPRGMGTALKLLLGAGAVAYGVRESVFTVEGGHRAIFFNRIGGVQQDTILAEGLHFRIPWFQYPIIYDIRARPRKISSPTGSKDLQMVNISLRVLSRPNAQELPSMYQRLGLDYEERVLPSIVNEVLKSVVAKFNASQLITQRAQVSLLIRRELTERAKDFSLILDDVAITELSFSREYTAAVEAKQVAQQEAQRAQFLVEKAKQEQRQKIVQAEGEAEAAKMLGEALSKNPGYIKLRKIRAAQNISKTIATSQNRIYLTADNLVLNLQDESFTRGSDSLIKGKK
UniProt Q9DBG6, residues 23-631: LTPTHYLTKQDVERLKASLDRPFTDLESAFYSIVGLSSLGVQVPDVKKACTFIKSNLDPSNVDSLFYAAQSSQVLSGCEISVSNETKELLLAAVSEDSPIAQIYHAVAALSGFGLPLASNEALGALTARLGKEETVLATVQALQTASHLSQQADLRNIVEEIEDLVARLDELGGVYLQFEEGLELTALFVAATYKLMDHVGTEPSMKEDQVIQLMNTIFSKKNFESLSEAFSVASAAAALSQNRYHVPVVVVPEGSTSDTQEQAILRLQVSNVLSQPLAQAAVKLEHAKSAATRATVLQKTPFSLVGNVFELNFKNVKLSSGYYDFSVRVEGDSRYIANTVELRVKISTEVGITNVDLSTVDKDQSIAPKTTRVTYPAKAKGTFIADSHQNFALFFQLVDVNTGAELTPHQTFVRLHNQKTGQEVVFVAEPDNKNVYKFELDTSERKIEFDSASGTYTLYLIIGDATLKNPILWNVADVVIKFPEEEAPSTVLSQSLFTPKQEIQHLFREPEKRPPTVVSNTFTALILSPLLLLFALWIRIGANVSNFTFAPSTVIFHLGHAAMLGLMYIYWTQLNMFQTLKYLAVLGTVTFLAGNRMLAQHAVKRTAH

Target: TAP-epitope tagged human 14-3-3ζ (human) (UniProt P63104)
Assay: affinity purification with mass spectrometry

binding: binds
Molecule: Prohibitin-2 (from UniProt O35129 1-299)

binding: binds
B2: Hnrnpf (protein, UniProt Q9Z2X1 1-415)
chain: MMLGPEGGEGYVVKLRGLPWSCSIEDVQNFLSDCTIHDGVAGVHFIYTREGRQSGEAFVELESEDDVKLALKKDRESMGHRYIEVFKSHRTEMDWVLKHSGPNSADSANDGFVRLRGLPFGCTKEEIVQFFSGLEIVPNGITLPVDPEGKITGEAFVQFASQELAEKALGKHKERIGHRYIEVFKSSQEEVRSYSDPPLKFMSVQRPGPYDRPGTARRYIGIVKQAGLDRMRSGAYSAGYGGYEEYSGLSDGYGFTTDLFGRDLSYCLSGMYDHRYGDSEFTVQSTTGHCVHMRGLPYKATENDIYNFFSPLNPVRVHIEIGPDGRVTGEADVEFATHEEAVAAMSKDRANMQHRYIELFLNSTTGASNGAYSSQVMQGMGVSAAQATYSGLESQSVSGCYGAGYSGQNSMGGYD

binding: binds
B3: Sfpq (protein, UniProt Q8VIJ6 1-699)
chain: MSRDRFRSRGGGGGGFHRRGGGGGRGGLHDFRSPPPGMGLNQNRGPMGPGPGGPKPPLPPPPPHQQQQQPPPQQPPPQQPPPHQQPPPHQPPHQQPPPPPQESKPVVPQGPGSAPGVSSAPPPAVSAPPANPPTTGAPPGPGPTPTPPPAVPSTAPGPPPPSTPSSGVSTTPPQTGGPPPPPAGGAGPGPKPGPGPGGPKGGKMPGGPKPGGGPGMGAPGGHPKPPHRGGGEPRGGRQHHAPYHQQHHQGPPPGGPGPRTEEKISDSEGFKANLSLLRRPGEKTYTQRCRLFVGNLPADITEDEFKRLFAKYGEPGEVFINKGKGFGFIKLESRALAEIAKAELDDTPMRGRQLRVRFATHAAALSVRNLSPYVSNELLEEAFSQFGPIERAVVIVDDRGRSTGKGIVEFASKPAARKAFERCSEGVFLLTTTPRPVIVEPLEQLDDEDGLPEKLAQKNPMYQKERETPPRFAQHGTFEYEYSQRWKSLDEMEKQQREQVEKNMKDAKDKLESEMEDAYHEHQANLLRQDLMRRQEELRRMEELHSQEMQKRKEMQLRQEEERRRREEEMMIRQREMEEQMRRQREESYSRMGYMDPRERDMRMGGGGTMNMGDPYGSGGQKFPPLGGGGGIGYEANPGVPPATMSGSMMGSDMRTERFGQGGAGPVGGQGPRGMGPGTPAGYGRGREEYEGPNKKPRF

Second part, the molecule before the results:

Molecule: Hnrnpk (from UniProt P61979 1-463)
binding: binds

Molecule: Rpn2 (from UniProt Q9DBG6 23-631)
binding: binds

B1: Syncrip/Hnrnpq (protein, UniProt Q7TMK9 1-623)
chain: MATEHVNGNGTEEPMDTTSAVIHSENFQTLLDAGLPQKVAEKLDEIYVAGLVAHSDLDERAIEALKEFNEDGALAVLQQFKDSDLSHVQNKSAFLCGVMKTYRQREKQGTKVADSSKGPDEAKIKALLERTGYTLDVTTGQRKYGGPPPDSVYSGQQPSVGTEIFVGKIPRDLFEDELVPLFEKAGPIWDLRLMMDPLTGLNRGYAFVTFCTKEAAQEAVKLYNNHEIRSGKHIGVCISVANNRLFVGSIPKSKTKEQILEEFSKVTEGLTDVILYHQPDDKKKNRGFCFLEYEDHKTAAQARRRLMSGKVKVWGNVGTVEWADPIEDPDPEVMAKVKVLFVRNLANTVTEEILEKSFSQFGKLERVKKLKDYAFIHFDERDGAVKAMEEMNGKDLEGENIEIVFAKPPDQKRKERKAQRQAAKNQMYDDYYYYGPPHMPPPTRGRGRGGRGGYGYPPDYYGYEDYYDYYGYDYHNYRGGYEDPYYGYEDFQVGARGRGGRGARGAAPSRGRGAAPPRGRAGYSQRGGPGSARGVRGARGGAQQQRGRGVRGARGGRGGNVGGKRKADGYNQPDTKRRQTNNQNWGSQPIAQQPLQGGDHSGNYGYKSENQEFYQDTFGQQWK
binding: binds

B4: Nono (protein, UniProt Q99K48 1-473)
chain: MQSNKAFNLEKQNHTPRKHHQHHHQQHHQQQQQQQQQQPPPPIPANGQQASSQNEGLTIDLKNFRKPGEKTFTQRSRLFVGNLPPDITEEEMRKLFEKYGKAGEVFIHKDKGFGFIRLETRTLAEIAKVELDNMPLRGKQLRVRFACHSASLTVRNLPQYVSNELLEEAFSVFGQVERAVVIVDDRGRPSGKGIVEFSGKPAARKALDRCSEGSFLLTTFPRPVTVEPMDQLDDEEGLPEKLVIKNQQFHKEREQPPRFAQPGSFEYEYAMRWKALIEMEKQQQDQVDRNIKEAREKLEMEMEAARHEHQVMLMRQDLMRRQEELRRMEELHNQEVQKRKQLELRQEEERRRREEEMRRQQEEMMRRQQEGFKGTFPDAREQEIRMGQMAMGGAMGINNRGAMPPAPVPPGTPAPPGPATMMPDGTLGLTPPTTERFGQAATMEGIGAIGGTPPAFNRPAPGAEFAPNKRRRY
binding: binds

B5: Ptrf/Cavin1 (protein, UniProt O54724 1-392)
chain: MEDVTLHIVERPYSGFPDASSEGPEPTQGEARATEEPSGTGSDELIKSDQVNGVLVLSLLDKIIGAVDQIQLTQAQLEERQAEMEGAVQSIQGELSKLGKAHATTSNTVSKLLEKVRKVSVNVKTVRGSLERQAGQIKKLEVNEAELLRRRNFKVMIYQDEVKLPAKLSVSKSLKESEALPEKEGDELGEGERPEDDTAAIELSSDEAVEVEEVIEESRAERIKRSGLRRVDDFKKAFSKEKMEKTKVRTRENLEKTRLKTKENLEKTRHTLEKRMNKLGTRLVPVERREKLKTSRDKLRKSFTPDHVVYARSKTAVYKVPPFTFHVKKIREGEVEVLKATEMVEVGPEDDEVGAERGEATDLLRGSSPDVHTLLEITEESDAVLVDKSDSD
binding: binds
